Assay results published in publication PMC7822076.
No constants are given. Whether binding was seen depends on the method and setting. In cells and extracts the contact can be indirect. Some binding calls cover weakened binding; strength is not graded here.

Sequences of proteins named here, by UniProt entry; tags and fusion partners are left off. A change or cut given only in a name is not applied to a line headed by its entry.
UniProt Q06609: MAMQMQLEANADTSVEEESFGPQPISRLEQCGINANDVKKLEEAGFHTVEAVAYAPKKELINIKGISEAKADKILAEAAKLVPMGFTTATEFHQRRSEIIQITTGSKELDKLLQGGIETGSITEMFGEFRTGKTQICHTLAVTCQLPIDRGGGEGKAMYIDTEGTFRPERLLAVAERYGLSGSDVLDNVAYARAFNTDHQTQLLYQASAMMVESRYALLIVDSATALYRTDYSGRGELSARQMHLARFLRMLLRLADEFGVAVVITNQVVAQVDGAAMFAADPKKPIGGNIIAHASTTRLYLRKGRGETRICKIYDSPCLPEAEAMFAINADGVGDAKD
UniProt P06748: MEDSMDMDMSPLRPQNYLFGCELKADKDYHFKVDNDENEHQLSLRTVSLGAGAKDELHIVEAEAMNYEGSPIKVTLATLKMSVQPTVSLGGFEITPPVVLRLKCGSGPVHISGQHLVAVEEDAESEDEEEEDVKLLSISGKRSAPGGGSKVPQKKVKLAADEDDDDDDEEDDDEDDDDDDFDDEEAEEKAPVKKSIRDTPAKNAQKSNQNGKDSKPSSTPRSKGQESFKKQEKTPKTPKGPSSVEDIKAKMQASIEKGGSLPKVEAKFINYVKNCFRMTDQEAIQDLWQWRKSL

Target: RAD51 (human (endogenous in HEK293)) (UniProt Q06609)
Experiment: co-IP; as a1 but unirradiated cells (0 Gy, no YTR107); IP with RAD51 antibody, blot with FLAG antibody

With “chimeric GFP/FLAG/NPM1 protein (nucleophosmin1) (from UniProt P06748 1-294)” the binding was “binds weakly”.
